Paper doi:10.64898/2025.12.17.694969
Results are given in words; binding and its absence hold for the method and conditions named. A result given as binding can be weak or reduced; the word gives no strength. For some assays here: Tags and fused reporters may be left off the sequences shown.

T1: Symplekin with twin-StrepII tag (S. pombe Symplekin/Pta1) (S. pombe) (UniProt Q10222)
T1 sequence: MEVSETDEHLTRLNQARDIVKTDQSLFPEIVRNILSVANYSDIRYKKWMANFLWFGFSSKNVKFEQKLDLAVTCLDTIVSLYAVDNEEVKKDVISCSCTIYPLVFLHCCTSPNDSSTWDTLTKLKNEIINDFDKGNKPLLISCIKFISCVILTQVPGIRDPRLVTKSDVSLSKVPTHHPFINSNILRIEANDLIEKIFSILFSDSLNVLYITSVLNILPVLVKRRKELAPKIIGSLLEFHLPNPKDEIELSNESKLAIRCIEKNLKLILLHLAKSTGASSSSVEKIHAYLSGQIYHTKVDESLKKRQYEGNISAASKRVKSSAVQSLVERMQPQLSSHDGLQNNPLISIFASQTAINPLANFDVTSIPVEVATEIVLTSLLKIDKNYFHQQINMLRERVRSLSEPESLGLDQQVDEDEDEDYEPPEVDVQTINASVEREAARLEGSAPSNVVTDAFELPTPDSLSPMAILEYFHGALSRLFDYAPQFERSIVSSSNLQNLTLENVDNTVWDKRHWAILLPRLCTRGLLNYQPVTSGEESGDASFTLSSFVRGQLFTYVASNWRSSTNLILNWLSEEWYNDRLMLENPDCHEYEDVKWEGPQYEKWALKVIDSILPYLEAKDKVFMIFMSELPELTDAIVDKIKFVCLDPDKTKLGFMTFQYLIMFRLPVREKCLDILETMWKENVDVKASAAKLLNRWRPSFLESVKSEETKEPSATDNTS


Experiments:
[1] = target: T1, Symplekin with twin-StrepII tag (S. pombe Symplekin/Pta1) (S. pombe); experiment: cross-linking
[2] = target: WDR82 (S. pombe WDR82/Swd2.2) (S. pombe); experiment: crystal structure

Row | binding [1] | binding [2] | Molecule
1 | binds |  | WDR82 (S. pombe WDR82/Swd2.2)
2 |  | binds | SymplekinNTD (Symplekin residues 1–307) (domain or fragment, UniProt Q10222 1-307) MEVSETDEHLTRLNQARDIVKTDQSLFPEIVRNILSVANYSDIRYKKWMANFLWFGFSSKNVKFEQKLDLAVTCLDTIVSLYAVDNEEVKKDVISCSCTIYPLVFLHCCTSPNDSSTWDTLTKLKNEIINDFDKGNKPLLISCIKFISCVILTQVPGIRDPRLVTKSDVSLSKVPTHHPFINSNILRIEANDLIEKIFSILFSDSLNVLYITSVLNILPVLVKRRKELAPKIIGSLLEFHLPNPKDEIELSNESKLAIRCIEKNLKLILLHLAKSTGASSSSVEKIHAYLSGQIYHTKVDESLKKRQ
